These results are taken from paper PMC11610137, “TRIM4 enhances small-molecule-induced neddylated-degradation of CORO1A for triple negative breast cancer therapy” (Theranostics, 2024).

Sequences of proteins named here, by UniProt entry; tags and fusion partners are left off.
UniProt P31146: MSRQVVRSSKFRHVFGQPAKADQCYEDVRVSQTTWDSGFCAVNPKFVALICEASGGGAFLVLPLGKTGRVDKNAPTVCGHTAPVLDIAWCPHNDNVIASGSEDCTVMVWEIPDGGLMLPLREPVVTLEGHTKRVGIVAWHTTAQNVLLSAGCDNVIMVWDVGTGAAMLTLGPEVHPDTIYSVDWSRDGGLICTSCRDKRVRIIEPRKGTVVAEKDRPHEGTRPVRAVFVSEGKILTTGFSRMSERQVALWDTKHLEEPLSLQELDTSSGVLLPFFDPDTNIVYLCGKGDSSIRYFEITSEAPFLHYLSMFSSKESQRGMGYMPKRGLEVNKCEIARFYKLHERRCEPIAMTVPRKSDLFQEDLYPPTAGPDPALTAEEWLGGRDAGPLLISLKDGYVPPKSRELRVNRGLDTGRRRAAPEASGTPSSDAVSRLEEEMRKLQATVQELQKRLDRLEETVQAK

No constants are given. Whether binding was seen depends on the method and setting. In cells and extracts the contact can be indirect. Some binding calls cover weakened binding; strength is not graded here.

This assay has as its target Coronin 1A (CORO1A) (Homo sapiens, UniProt P31146). The assay is described as follows: co-IP; HEK 293T cells transfected with CORO1A (and TRIM4) plasmid DNA, with or without AB (0.2 uM, 24 h); IP lysis buffer, non-denaturing; anti-CORO1A overnight at 4°C, Protein A beads, Western blot.

B1: TRIM4 (protein, UniProt Q9C037 1-500)
chain: MEAEDIQEELTCPICLDYFQDPVSIECGHNFCRGCLHRNWAPGGGPFPCPECRHPSAPAALRPNWALARLTEKTQRRRLGPVPPGLCGRHWEPLRLFCEDDQRPVCLVCRESQEHQTHAMAPIDEAFESYRTGNFDIHVDEWKRRLIRLLLYHFKQEEKLLKSQRNLVAKMKKVMHLQDVEVKNATQWKDKIKSQRMRISTEFSKLHNFLVEEEDLFLQRLNKEEEETKKKLNENTLKLNQTIASLKKLILEVGEKSQAPTLELLQNPKEVLTRSEIQDVNYSLEAVKVKTVCQIPLMKEMLKRFQVAVNLAEDTAHPKLVFSQEGRYVKNTASASSWPVFSSAWNYFAGWRNPQKTAFVERFQHLPCVLGKNVFTSGKHYWEVESRDSLEVAVGVCREDVMGITDRSKMSPDVGIWAIYWSAAGYWPLIGFPGTPTQQEPALHRVGVYLDRGTGNVSFYSAVDGVHLHTFSCSSVSRLRPFFWLSPLASLVIPPVTDRK
On to B1, for which the binding result was “binds”.
